Experimental data reported in PubChem BioAssay AID2685 (National Center for Advancing Translational Sciences (NCATS), 2010).
This is one part of the list. These are further read-outs of the screen, such as a control signal, another cell line or another target. No call is given for them. The list favours compounds with an active or inconclusive main result. Potencies come from curve fits of mixed quality, noted in brackets.

Test: qHTS Assay for Lipid Storage Modulators in Drosophila S3 Cells;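 on cell number change: cells counted by Cell Tracker Red CMTPX staining in the red channel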
Conditions: BODIPY lipid droplet fluorescence, 18-24 h; for cell number change: measured here: cell count max response, cells fed with added oleic acid
Summary of the method: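 Drosophila S3 cells loaded with oleic acid (400 uM, as added) and compounds at several concentrations; lipid droplets imaged by 488-nm laser-scanning cytometry, 500–530 nm intensity and object ratio to cell channel. Percent activity normalized to 20 uM Triacsin C.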

[1] = measured here: lipid fluorescence (Fed channel) AC50, cells fed with added oleic acid
[2] = measured here: cell number channel AC50, cells fed with added oleic acid

| Compound | AC50 [1] | cell number change | AC50 [2] |
| --- | --- | --- | --- |
| O=C(CC(=O)Nc1ccc(F)cc1F)Nc1ccc(F)cc1F | 29.1 µM [rising, single point] |  |  |
| CCN(c1ccc(OC)cc1)S(=O)(=O)c1ccc(-c2ccc(=O)[nH]n2)o1 | 6.51 µM [falling, partial curve] | -35.7% | 2.31 µM [falling, partial curve, poor fit] |
| O=c1cc(-c2ccccc2F)oc2ccccc12 | 14.6 µM [falling, single point] | -25.8% |  |
| Cc1ccc(S(=O)(=O)CCc2nnc(NC(=O)c3cccs3)s2)cc1 | 18.4 µM [rising, partial curve] | 136% | 18.4 µM [rising, single point] |
| O=C(NC(=S)Nc1ccccn1)c1ccccc1 |  | 10.3% |  |
| COc1cccc(/C=C/c2ccc3cccc(O)c3n2)c1 | 29.1 µM [rising, partial curve, poor fit] | 64.5% | 16.4 µM [rising, single point] |
| CCN(CC)C(=O)c1ccc(Oc2ccc([N+](=O)[O-])cc2Cl)cc1 |  | 0.865% |  |
| O=C(O)COc1c(-c2ccco2)oc2ccccc2c1=O | 25.9 µM [falling, single point] | -29.4% |  |
| N#Cc1c(SCC(=O)Nc2cccc(F)c2)sc2c(O)cc(=O)[nH]c12 | 25.9 µM [rising, single point] | -2.56% |  |
| O=S(=O)(Nc1cccc(-c2nc3cccnc3s2)c1)c1ccc2c(c1)OCCO2 | 1.16 µM [rising, partial curve] |  |  |
| Cc1cccc2c3nc4ccccc4nc3n(CCCN3C(=O)c4ccccc4C3=O)c12 | 23.1 µM [rising, single point] | 13.5% |  |
| O=C(c1cccs1)N1CCCC(c2nc3c(nnn3Cc3c(Cl)cccc3Cl)c(=O)[nH]2)C1 (centres undefined) |  | -15.4% |  |
| CCN(CC)C(=O)CSc1ncnc2c1cnn2Cc1ccccc1 | 9.2 µM [rising, partial curve] | -8.6% |  |
| C/C(CC(=O)N1CCN(C=O)CC1)=N\NC(=O)c1ccc([N+](=O)[O-])cc1 | 16.4 µM [falling, partial curve, poor fit] | -25.6% |  |
| O=C(CN1CCN(Cc2ccccc2)CC1)NC(=O)NC1CCCCC1 | 5.8 µM [falling, full curve] | -15.5% |  |
| S=C(NCCNCc1ccccc1)NC1CCCCC1 | 20.6 µM [rising, single point] | -12.8% |  |
| COc1ccccc1/C=C/C(=O)NCC(=O)N/N=C/c1cc(Br)ccc1OC |  |  | 2.59 µM [rising, partial curve] |
| CC(C)(CO)NS(=O)(=O)c1ccc2c(c1)oc(=O)c1cc(S(=O)(=O)NC(C)(C)CO)ccc12 | 0.116 µM [falling, full curve, poor fit] | -78.3% | 20.6 µM [falling, partial curve] |
| CCN(CC)S(=O)(=O)c1ccc(S(=O)(=O)N2CCC(N3CCCCC3)CC2)cc1 | 0.82 µM [falling, partial curve, poor fit] | -4.27% |  |

| Compound | AC50 [1] | cell number change | AC50 [2] |
| --- | --- | --- | --- |
| COC(=O)c1ccc(/C=N/NC(=O)CC(=O)NC2CCCCC2)cc1 |  | 31.8% | 29.1 µM [rising, single point] |
| Cc1cc(O)c(C(C[N+](=O)[O-])c2ccc(Cl)cc2Cl)c(=O)o1 (centres undefined) |  |  | 0.13 µM [falling, full curve, poor fit] |
| CCC1=Nc2cc(C(=O)NCc3ccco3)ccc2Sc2ccc(C)cc21 | 4.11 µM [falling, full curve, poor fit] | -19.2% |  |
| CCn1cc(CNC(=O)c2c(-c3c(Cl)cccc3Cl)noc2C)c(C)n1 | 7.31 µM [falling, partial curve, poor fit] | -0.157% |  |
| CCOC(=O)C1CCCN(C(=O)C(=O)Nc2ccc3nc4n(c(=O)c3c2)CCCCC4)C1 (centres undefined) | 29.1 µM [falling, single point] | 5.19% |  |
| CNC(=O)NNC(=O)c1csc(Cc2c(Cl)sc3ccc(Cl)cc23)n1 | 0.0326 µM [rising, full curve, poor fit] | 27.9% | 0.82 µM [rising, full curve, poor fit] |
| Cc1cc(C(=O)N2CCN(c3ccccn3)CC2)c(C)o1 | 6.51 µM [falling, single point] | -3.51% | 0.731 µM [falling, single point] |
| CC(C)c1ccc(/C=c2\sc3nc(-c4ccncc4)nn3c2=O)cc1 | 0.164 µM [falling, full curve, poor fit] | 19.8% | 1.3 µM [falling, full curve] |
| Cc1ccc(-n2c(C)c3c(C)nnc(C)c3c2C)cc1C |  | -56.7% | 16.4 µM [falling, partial curve] |
| CC(C)c1ccccc1-n1c(SCC(=O)N2CCc3ccccc3C2)nc2ccccc2c1=O |  | -47.2% | 14.6 µM [falling, single point] |
| C[C@@]12CCC3[C@@](CCC4[C@@]3(C)CCC[C@@]4(C)C(=O)O)(CC1=O)C2 (some centres undefined) | 0.517 µM [falling, partial curve] | -2.33% | 0.58 µM [falling, partial curve] |
| CC1(c2cccc(Br)c2)NC(=O)N(CC(=O)NCC2CCCO2)C1=O (centres undefined) |  | 21.5% | 0.00461 µM [falling, full curve, poor fit] |
| Cc1cccc(NC(=O)C(C)SCc2nc3sc4c(c3c(=O)[nH]2)CCCC4)n1 (centres undefined) |  | 18.5% |  |
| N#CC(C#N)=C(N)Nc1cccc(Cl)c1 |  | -17.3% |  |
| O=C(O)c1ccccc1-c1ccccc1C(=O)Nc1ccccc1-c1ccccc1 | 5.8 µM [rising, full curve] | -10.8% |  |
| COC(=O)c1ccccc1NC(=O)N1CCCC1 |  | 10.2% |  |
| O=C(N/N=C/c1ccccc1F)NC12CC3CC(CC(C3)C1)C2 | 0.00461 µM [falling, full curve, poor fit] | -20.6% |  |
| Cc1ccc(C(=O)NC(C)c2ccc(F)cc2)cc1 (centres undefined) | 0.461 µM [rising, full curve, poor fit] | 21.2% |  |
| O=C(c1ccc([N+](=O)[O-])s1)N1CCc2ccccc21 |  | 2.86% | 0.0731 µM [rising, full curve, poor fit] |

Structures shown so far containing a thiophene ring, fused or not:

| Compound | AC50 [1] | cell number change | AC50 [2] |
| --- | --- | --- | --- |
| Cc1ccc(S(=O)(=O)CCc2nnc(NC(=O)c3cccs3)s2)cc1 | 18.4 µM [rising, partial curve] | 136% | 18.4 µM [rising, single point] |
| N#Cc1c(SCC(=O)Nc2cccc(F)c2)sc2c(O)cc(=O)[nH]c12 | 25.9 µM [rising, single point] | -2.56% |  |
| O=C(c1cccs1)N1CCCC(c2nc3c(nnn3Cc3c(Cl)cccc3Cl)c(=O)[nH]2)C1 (centres undefined) |  | -15.4% |  |
| CNC(=O)NNC(=O)c1csc(Cc2c(Cl)sc3ccc(Cl)cc23)n1 | 0.0326 µM [rising, full curve, poor fit] | 27.9% | 0.82 µM [rising, full curve, poor fit] |
| Cc1cccc(NC(=O)C(C)SCc2nc3sc4c(c3c(=O)[nH]2)CCCC4)n1 (centres undefined) |  | 18.5% |  |
| O=C(c1ccc([N+](=O)[O-])s1)N1CCc2ccccc21 |  | 2.86% | 0.0731 µM [rising, full curve, poor fit] |
